Measured values: publication PMC9976406, “ANGPTL2 binds MAG to efficiently enhance oligodendrocyte differentiation” (Cell & Bioscience, 2023)

What was measured:
[1] = target: human MAG G389D/Y341A (mutant IgG4 domain) (human); test: flow cytometry on cells; 293T cells transfected with MAG-GFP plasmids, collected after 48 h, incubated with ANGPTL2-Flag (or other ANGPTL) conditioned medium at 4 °C for 1-2 h, then anti-Flag-APC and PI; binding read in EGFP+ cells
[2] = target: human MAG G301D/Y303A (mutant IgG3 domain) (human); test: as above

binding [1]: no binding | binding [2]: no binding
B1: ANGPTL2-Flag (angiopoietin-like protein 2) (ligand, UniProt Q9UKU9 23-493, looked up)
chain: QEDGFEGTEEGSPREFIYLNRYKRAGESQDKCTYTFIVPQQRVTGAICVNSKEPEVLLENRVHKQELELLNNELLKQKRQIETLQQLVEVDGGIVSEVKLLRKESRNMNSRVTQLYMQLLHEIIRKRDNALELSQLENRILNQTADMLQLASKYKDLEHKYQHLATLAHNQSEIIAQLEEHCQRVPSARPVPQPPPAAPPRVYQPPTYNRIINQISTNEIQSDQNLKVLPPPLPTMPTLTSLPSSTDKPSGPWRDCLQALEDGHDTSSIYLVKPENTNRLMQVWCDQRHDPGGWTVIQRRLDGSVNFFRNWETYKQGFGNIDGEYWLGLENIYWLTNQGNYKLLVTMEDWSGRKVFAEYASFRLEPESEYYKLRLGRYHGNAGDSFTWHNGKQFTTLDRDHDVYTGNCAHYQKGGWWYNACAHSNLNGVWYRGGHYRSRYQDGVYWAEFRGGSYSLKKVVMMIRPNPNTFH
notes: angiopoietin-like protein 2 (ANGPTL2), secreted into the conditioned medium of 293T cells; The same ANGPTL2-Flag was used on human and murine MAG; also called purified ANGPTL2 protein; source: 293T, transfected with CMV-ANGPTL2-Flag; conditioned medium collected after 48 h, or purified from it with M2 resin

No constants are given. Whether binding was seen depends on the method and setting. Sequences can lack the tags named with a protein.
